Results are given in words; binding and its absence hold for the method and conditions named. Binding seen in cells or lysates may run through a third protein. Some binding calls cover weakened binding; strength is not graded here.
Columns and labels:
[1] = target: GCG in mouse serum (mouse) (UniProt P55095); test: co-immunoprecipitation from mouse serum (FIG. 4E)
[2] = target: GCG in mouse serum (mouse) (UniProt P55095); test: co-immunoprecipitation from serum of fasted C57BL/6N mice, western blot
[3] = target: GCG in mouse serum (mouse) (UniProt P55095); test: co-immunoprecipitation from mouse serum (IP: GP73, IB: Glucagon and IB: GP73), fasting 0-72 h, with input lanes; no control-IgG lane shown

Amino acid sequences for entries named in this document (tags omitted). Residues count along the entry.
UniProt P55095, residues 53-81: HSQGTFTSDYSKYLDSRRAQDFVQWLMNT

Measured: binding

B1: soluble GP73 in mouse serum (protein, UniProt Q91XA2 56-393, looked up)
chain: AAAERGAVELKKNEFQGELQKQREQLDRIQSSHSFQLENVNKLHQDEKAVLVNNITTGEKLIRDLQDQLKALQRSYSSLQQDIFQFQKNQTSLEKKFSYDLNQCISQMTEVKEQCDERIEEVIRKRNEAPGSRDLAETNNQHQQALKPQPKLQEEVPSEEQMPQEKGDVPRNKSQIPAPNSESLGLKPQVQNEETNEIQAVGEEHQQASIQGQAVADGTRVGAEKLDQHTQLPAGLLARPEEDSQYPEREQLVIRDRQEQQRASEEGGGQKNPGDEYDMDENEAESEREKQAALAGNDRNINVLNADAQKRGIINVPVGSERQSHILNQVGIHIPQQA
binds: all assays above

Reference: patent US20230021840A1, “USE OF GP73 INHIBITOR IN PREPARATION OF MEDICINE FOR TREATING DIABETES” (BEIJING SUNGEN BIOMEDICAL TECHNOLOGY CO. LTD., priority 2020, published 2023)
